Here are results for three molecules from patent US20040014649A1 (RIGEL PHARMACEUTICALS, published 2004).

These are yes or no findings as the source states them, for the method shown. Some results given as binding are weak or reduced against the parent protein; the word gives no strength.

Experiment [1] has as its target human B-cell associated protein-37 (human BAP-37) (human). Briefly: yeast two-hybrid.
Experiment [2] shares this target. The experiment is described as follows: yeast two-hybrid interaction profile compared with the functional profile.
For experiment [3] the target is unchanged. The experiment is described as follows: beta-galactosidase yeast two-hybrid interaction profile against clone 3.2CL8 Y_AS_U 0001.

B1: peptide CL08wt (peptide)
peptide: TGVHVELQINRSIMHYISSP
For B1, the binding entry in experiment [1] and in experiment [2] was “binds” throughout.

B2: peptide CL08NR (peptide)
peptide: TGVHVELQIAASIMHYISSP
Take B2: the binding result in experiment [1] and in experiment [3] was “binds” each time.

B3: peptide CL08VH (peptide)
peptide: TGAAVELQINRSIMHYISSP
With B3, the binding result in experiment [1] and in experiment [3] was “binds” throughout.
